Results reported in patent US9113631B2, “1,3-diaryl-substituted heterocyclic pesticides” (E I DU PONT DE NEMOURS AND COMPANY, priority 2011, dated 2015).
Some results were stated once for a whole list of compounds, not compound by compound. At least one structure is not confirmed: it was looked up by name or label, or the drawing left a doubt.

Tests used:
Assay type in all cases: in vivo
[1] = test system: fall armyworm (Spodoptera frugiperda); assay: Test B: control of fall armyworm on maize plant, foliar spray; details: 1-day-old larvae on maize plant, 25° C., visually rated
[2] = test system: potato leafhopper (Empoasca fabae); assay: Test F: control of potato leafhopper on Soleil bean plant, contact and/or systemic; details: adults on Soleil bean plant, 6 days, 24° C.
Procedure: Test compounds were formulated using a solution containing 10% acetone, 90% water and 300 ppm X-77® Spreader Lo-Foam Formula non-ionic surfactant containing alkylarylpolyoxyethylene, free fatty acids, glycols and isopropanol (Loveland Industries, Inc. Greeley, Colo., USA). The formulated compounds were applied in 1 mL of liquid through a SUJ2 atomizer nozzle with 1/8 JJ custom body (Spraying Systems Co., Wheaton, Ill., USA) positioned 1.27 cm (0.5 inches) above the top of each test unit. Test compounds were sprayed at 250 ppm and/or 50 ppm, and replicated three times. After spraying of the formulated test compound, each test unit was allowed to dry for 1 h and then a black, screened cap was placed on top. The test units were held for 6 days in a growth chamber at 25° C. and 70% relative humidity. Plant feeding damage was then visually assessed based on foliage consumed.
For evaluating control of potato leafhopper (Empoasca fabae) through contact and/or systemic means, the test unit consisted of a small open container with a 5-6-day-old Soleil bean plant (primary leaves emerged) inside. White sand was added to the top of the soil and one of the primary leaves was excised prior to application.
Test compounds were formulated and sprayed at 250 ppm and/or 50 ppm, and the tests were replicated three times as described for Test A. After spraying, the test units were allowed to dry for 1 h before they were post-infested with 5 potato leafhoppers (18-21-day-old adults). A black, screened cap was placed on the top of each test unit, and the test units were held for 6 days in a growth chamber at 24° C. and 70% relative humidity. Each test unit was then visually assessed for insect mortality.

[3] = test system: diamondback moth (Plutella xylostella); assay: Test A: control of diamondback moth on radish plant, foliar spray; details: neonate larvae on radish plant, 6 days, 25° C., visually assessed

Structure (SMILES)	control efficacy, very good to excellent: feeding damage (40% or less feeding damage and/or 100% mortality) ([1]; sprayed at 250 ppm) [%]	control efficacy, very good to excellent: mortality ([2]; sprayed at 250 ppm) [%]	control efficacy, very good to excellent: feeding damage (40% or less feeding damage and/or 100% mortality) ([1]; sprayed at 50 ppm) [%]	control efficacy, very good to excellent: mortality ([2]; sprayed at 50 ppm) [%]	control efficacy, very good to excellent: feeding damage (40% or less feeding damage and/or 100% mortality) ([3]; sprayed at 50 ppm) [%]	control efficacy, very good to excellent: feeding damage (40% or less feeding damage and/or 100% mortality) ([3]; sprayed at 250 ppm) [%]
Fc1ccccc1-c1nn(-c2ccc(Cl)cc2)cc1CN1CCC2(CC1)COC2 [Compound 624]	≤ 40	≥ 80				
N#CC1CCN(Cc2cn(-c3ncc(Br)cn3)nc2-c2ccccc2F)CC1 [Compound 609]	≤ 40	≥ 80				
Fc1ccc(-c2nn(-c3ccc(F)c(Cl)c3)cc2CN2CCOCC2)c(F)c1 [Compound 584]	≤ 40	≥ 80	≤ 40	≥ 80		
Fc1ccc(-n2cc(CN3CCC(c4ccncc4)CC3)c(-c3ccccc3F)n2)cc1Cl [Compound 747]	≤ 40	≥ 80				
N#CC1CCCN(Cc2cn(-c3ccc(F)c(Cl)c3)nc2-c2ccc(F)cc2F)C1 (stereo not shown) [Compound 608]	≤ 40	≥ 80	≤ 40			
Fc1ccc(-c2nn(-c3ccc(Cl)cc3)cc2CN2CCOCC2)c(Cl)c1 [Compound 605]	≤ 40	≥ 80	≤ 40			
Cc1ccccc1-c1nn(-c2ccc(OC(F)(F)F)cc2)cc1CN1CCOCC1 [Compound 561]	≤ 40	≥ 80				
CC(=O)N[C@H]1CCN(Cc2cn(-c3ccc(Cl)c(Cl)c3)nc2-c2ccccc2F)C1 [Compound 753]	≤ 40	≥ 80	≤ 40			
Cc1noc(C2CCN(Cc3cn(-c4ccc(Cl)cc4)nc3-c3ccccc3F)CC2)n1 [Compound 742]	≤ 40	≥ 80	≤ 40			
CC(C)(C)C(=O)N[C@H]1CCN(Cc2cn(-c3cccc(C(F)(F)F)c3)nc2-c2ccc(F)cc2)C1 [Compound 750]	≤ 40	≥ 80	≤ 40			
Fc1cc(F)c(-c2nn(-c3ccc(Cl)cc3)cc2CN2CCC(c3ccncc3)CC2)c(F)c1 [Compound 748]	≤ 40	≥ 80	≤ 40			
Fc1ccccc1-c1nn(-c2ccc(Cl)cc2)cc1CN1CCC(c2nnco2)CC1 [Compound 720]	≤ 40	≥ 80	≤ 40			
Fc1ccc(-n2cc(CN3CCC(n4cncn4)CC3)c(-c3ccccc3F)n2)cc1.O=C(O)C(F)(F)F [Compound 619]	≤ 40	≥ 80				
O=C1OCCC12CCN(Cc1cn(-c3ccc(Cl)cc3)nc1-c1ccccc1F)CC2 [Compound 705]	≤ 40	≥ 80	≤ 40			
CC(=O)N[C@H]1CCN(Cc2cn(-c3ccc(Cl)cc3)nc2-c2c(F)cc(F)cc2F)C1 [Compound 752]	≤ 40	≥ 80				
Fc1cc(F)c(-c2nn(-c3ccc(Cl)cc3)cc2CN2CCOCC2)c(F)c1 [Compound 603]	≤ 40	≥ 80	≤ 40	≥ 80		
N#CC1CCN(Cc2cn(-c3ccc(Cl)cc3)nc2-c2c(F)cc(F)cc2F)CC1 [Compound 602]				≥ 80	≤ 40	

Structure (SMILES)	control efficacy, very good to excellent: feeding damage (40% or less feeding damage and/or 100% mortality) ([1]; sprayed at 250 ppm) [%]	control efficacy, very good to excellent: mortality ([2]; sprayed at 250 ppm) [%]	control efficacy, very good to excellent: feeding damage (40% or less feeding damage and/or 100% mortality) ([1]; sprayed at 50 ppm) [%]	control efficacy, very good to excellent: mortality ([2]; sprayed at 50 ppm) [%]	control efficacy, very good to excellent: feeding damage (40% or less feeding damage and/or 100% mortality) ([3]; sprayed at 50 ppm) [%]	control efficacy, very good to excellent: feeding damage (40% or less feeding damage and/or 100% mortality) ([3]; sprayed at 250 ppm) [%]
CC(=O)NC1CCN(Cc2cn(-c3ccc(F)c(F)c3)nc2-c2ccccc2F)CC1 [Compound 112]		≥ 80		≥ 80	≤ 40	
CC(=O)N[C@H]1CCN(Cc2cn(-c3ccc(F)c(Cl)c3)nc2-c2ccccc2F)C1 [Compound 749]	≤ 40	≥ 80				
CC(=O)NC1CCCN(Cc2cn(-c3ccc(F)c(Cl)c3)nc2-c2ccc(F)cc2F)C1 (stereo not shown) [Compound 620]	≤ 40	≥ 80				
Fc1ccc(-n2cc(CN3CCOCC3)c(-c3c(F)cccc3F)n2)cc1Cl [Compound 582]	≤ 40	≥ 80	≤ 40	≥ 80		
CC(=O)N[C@H]1CCN(Cc2cn(-c3cccc(C(F)(F)F)c3)nc2-c2ccccc2F)C1 [Compound 844]		≥ 80			≤ 40	
Cc1ccc(-n2cc(CN3CCOCC3)c(-c3ccccc3F)n2)cc1 [Compound 569]	≤ 40	≥ 80	≤ 40			
Fc1ccc(-c2nn(-c3ccc(OC(F)(F)F)cc3)cc2CN2CCC(n3cncn3)CC2)c(F)c1 [Compound 696]	≤ 40	≥ 80				
N#CC1CCN(Cc2cn(-c3nccc(C(F)(F)F)n3)nc2-c2ccccc2F)CC1 [Compound 46]		≥ 80			≤ 40	≤ 40
CC(=O)N[C@H]1CCN(Cc2cn(-c3ccc(Br)cn3)nc2-c2ccccc2F)C1 [Compound 833]		≥ 80			≤ 40	
CC(=O)NC1CCN(Cc2cn(-c3ccc(OC(F)(F)F)cc3)nc2-c2c(F)cccc2F)CC1 [Compound 105]		≥ 80		≥ 80	≤ 40	
COC(=O)C1CCN(Cc2cn(-c3ccc(C)c(C)c3)nc2-c2ccccc2F)CC1 [Compound 130]		≥ 80			≤ 40	
CC(=O)NC1CCN(Cc2cn(-c3ccc(Cl)c(Cl)c3)nc2-c2ccccc2F)CC1 [Compound 62]		≥ 80		≥ 80	≤ 40	≤ 40
CC(=O)N[C@H]1CCN(Cc2cn(-c3ccc(Cl)cn3)nc2-c2ccc(F)cc2)C1 [Compound 896]		≥ 80		≥ 80	≤ 40	
CC(=O)N[C@H]1CCN(Cc2cn(-c3ccc(Br)cn3)nc2-c2c(F)cccc2F)C1 [Compound 894]		≥ 80			≤ 40	
COC(=O)C1CCN(Cc2cn(-c3ccc(F)c(F)c3)nc2-c2ccccc2Cl)CC1 [Compound 531]		≥ 80			≤ 40	
CC(=O)NC1CCN(Cc2cn(-c3ccc(Cl)c(Cl)c3)nc2-c2ccccc2C)CC1 [Compound 108]		≥ 80		≥ 80	≤ 40	
